Source: PubChem BioAssay AID192 (DTP/NCI, 2004)
The list is a part of this screen's results and no random one: it gathers tests that were run many times, whatever their T/C, doses with no T/C, and many T/C values between a quarter and a half above the control. Other doses and runs of a compound stand elsewhere. T/C: endpoint of the treated group in % of that of the vehicle group. Some entries give survivors of the animals treated and no T/C: the source files T/C as zero there, which appears to mark a toxic dose or a test without result, not a measured value. Some doses without a T/C left all or most animals alive at the check, yet need not have been tolerated: the source hardly ever lists a survival T/C far under the control, and the zero likely stands for such cases as well. Counts of survivors are from the toxicity check (mostly the fifth day) where no day follows; animals may have died later. Schedules are NCI's codes, read here as Q, the interval in days (D) or hours (H), X, the number of doses. Some doses were run more than once; the values are given in rising order. Some structures stand for samples that the source files as different forms (salt, stereo form or complex); doses refer to the form tested. Where survival is the endpoint, this PubChem deposit counts one and a half times the control or more as active, and values a quarter to a half above the control carry no call in these data; other NCI protocols may use other cut-offs. Some T/C values are followed by the survivors on the day toxicity was checked, most often the fifth; where none is given, no animal had died by that day.

Test system: BDF1 mice, B16 melanoma ip, median survival T/C
Assay: NCI In Vivo Anticancer Drug Screen. Data for tumor model B16 Melanoma (intraperitoneal) in B6D2F1 (BDF1) mice
Conditions: T/C endpoint: median survival time, higher T/C = longer survival
Procedure: The antitumor activity of compounds was measured in mice bearing transplantable tumors. Survival or tumor size were measured and the results are expressed as the measurement made in the treated group (T) divided by the measurement made in the vehicle treated control group (C). The tumor model used in this assay is B16 Melanoma (intraperitoneal) in B6D2F1 (BDF1) mice

[1] = dose: 200.0 mg/kg/injection, schedule: Q01DX009 (ip), vehicle: saline with Tween-80
[2] = dose: 0.5 mg/kg/injection, schedule: Q01DX009 (ip), vehicle: other
[3] = dose: 1.0 mg/kg/injection, schedule: Q01DX009 (ip), vehicle: other
[4] = dose: 100.0 mg/kg/injection, schedule: Q01DX009 (ip), vehicle: Klucel (hydroxypropylcellulose) (HPC)
[5] = dose: 200.0 mg/kg/injection, schedule: Q01DX009 (ip), vehicle: Klucel (hydroxypropylcellulose) (HPC)
[6] = dose: 50.0 mg/kg/injection, schedule: Q01DX009 (ip), vehicle: saline
[7] = dose: 50.0 mg/kg/injection, schedule: Q01DX009 (ip), vehicle: Klucel (hydroxypropylcellulose) (HPC)
[8] = dose: 50.0 mg/kg/injection, schedule: Q01DX009 (ip), vehicle: saline with Tween-80
[9] = dose: 100.0 mg/kg/injection, schedule: Q01DX009 (ip), vehicle: saline with Tween-80
[10] = dose: 25.0 mg/kg/injection, schedule: Q01DX009 (ip), vehicle: saline
[11] = dose: 400.0 mg/kg/injection, schedule: Q01DX009 (ip), vehicle: saline with Tween-80
[12] = dose: 200.0 mg/kg/injection, schedule: Q04DX003 (ip), vehicle: Klucel (hydroxypropylcellulose) (HPC)
[13] = dose: 400.0 mg/kg/injection, schedule: Q01DX009 (ip), vehicle: Klucel (hydroxypropylcellulose) (HPC)

## O=Cc1cc([N+](=O)[O-])ccc1Cl
[1]
  survivor count: 9 of 10

## COC1=C(N2CC2)C(=O)C(OC)=C(N2CC2)C1=O
[2]
  T/C: 132 % of control
  survivor count: 10 of 10
dose: 0.5 mg/kg/injection, schedule: Q01DX009 (ip), vehicle: saline with Tween-80
  T/C: 134 % of control
[3]
  T/C: 132 % of control
  survivor count: 10 of 10
dose: 1.3 mg/kg/injection, schedule: Q01DX009 (ip), vehicle: other
  T/C: 141 % of control
dose: 2.0 mg/kg/injection, schedule: Q01DX009 (ip), vehicle: other
  T/C: 149 % of control
dose: 2.0 mg/kg/injection, schedule: Q01DX009 (ip), vehicle: saline with Tween-80
  survivor count: 10 of 10
dose: 3.0 mg/kg/injection, schedule: Q01DX009 (ip), vehicle: other
  survivor count: 10 of 10
dose: 4.0 mg/kg/injection, schedule: Q01DX009 (ip), vehicle: other
  survivor count: 9 of 10 and 10 of 10
dose: 4.0 mg/kg/injection, schedule: Q01DX009 (ip), vehicle: saline with Tween-80
  survivor count: 10 of 10

## Cc1ccc(S(=O)(=O)N/N=C/C(Br)=C(/Br)C(=O)O)cc1
[4]
  T/C: 148 % of control
[5]
  survivor count: 8 of 10

## CC(C)CNc1ccc(S(=O)(=O)c2ccc(NCC(C)C)c([N+](=O)[O-])c2)cc1[N+](=O)[O-]
dose: 12.5 mg/kg/injection, schedule: Q01DX009 (ip), vehicle: saline
  survivor count: 10 of 10
[6]
  survivor count: 10 of 10

## O=[N+]([O-])c1ccc([I+]c2ccccc2)cc1
[7]
  survivor count: 10 of 10
[8]
  survivor count: 8 of 10
[4]
  survivor count: 0 of 10
[5]
  survivor count: 0 of 10

## COC(=O)C1=CO[C@@H](C)[C@@H]2Cn3ccc4c5ccccc5nc-4c3C[C@H]12
[9]
  survivor count: 2 of 10
[1]
  survivor count: 0 of 10

## CCOC(Cl)CCl (centres undefined)
[8]
  survivor count: 9 of 10

## COP(=O)(OC)OCc1cnc(SC)nc1N
[10]
  T/C: 125 % of control [9 of 10 alive]

## O=CNc1c(Cl)c(Cl)c2c(c1Cl)Cc1cc(Cl)ccc1-2
dose: 0.37 mg/kg/injection, schedule: Q01DX009 (ip), vehicle: DMSO
  survivor count: 10 of 10
dose: 0.75 mg/kg/injection, schedule: Q01DX009 (ip), vehicle: DMSO
  survivor count: 10 of 10
dose: 1.5 mg/kg/injection, schedule: Q01DX009 (ip), vehicle: DMSO
  survivor count: 10 of 10 and 9 of 9
dose: 3.0 mg/kg/injection, schedule: Q01DX009 (ip), vehicle: DMSO
  survivor count: 10 of 10
dose: 6.0 mg/kg/injection, schedule: Q01DX009 (ip), vehicle: DMSO
  survivor count: 9 of 9
dose: 25.0 mg/kg/injection, schedule: Q01DX009 (ip), vehicle: DMSO
  survivor count: 10 of 10
dose: 50.0 mg/kg/injection, schedule: Q01DX009 (ip), vehicle: DMSO
  survivor count: 8 of 10
dose: 100.0 mg/kg/injection, schedule: Q01DX009 (ip), vehicle: DMSO
  survivor count: 3 of 10

## CCC(C)C(NC(=O)OC(C)(C)c1ccc(-c2ccccc2)cc1)C(=O)O (centres undefined)
[11]
  survivor count: 0 of 10

## O=C1OC(=O)C2C3C=CC(C3=C(c3ccccc3)c3ccccc3)C12 (centres undefined)
dose: 6.25 mg/kg/injection, schedule: Q04DX003 (ip), vehicle: carboxymethylcellulose (CMC)
  survivor count: 10 of 10
dose: 12.5 mg/kg/injection, schedule: Q04DX003 (ip), vehicle: carboxymethylcellulose (CMC)
  survivor count: 9 of 10
dose: 25.0 mg/kg/injection, schedule: Q04DX003 (ip), vehicle: carboxymethylcellulose (CMC)
  survivor count: 10 of 10
dose: 50.0 mg/kg/injection, schedule: Q04DX003 (ip), vehicle: Klucel (hydroxypropylcellulose) (HPC)
  survivor count: 10 of 10
dose: 100.0 mg/kg/injection, schedule: Q04DX003 (ip), vehicle: Klucel (hydroxypropylcellulose) (HPC)
  survivor count: 10 of 10
[12]
  survivor count: 7 of 10

## C=C1Sc2ccccc2N1C
[7]
  survivor count: 5 of 10

## CNC(c1ccncc1)C(NC)c1ccncc1 (centres undefined)
[12]
  survivor count: 10 of 10

## CC[C@]12CN3CCc4c([nH]c5ccccc45)[C@@](C(=O)OC)(c4cc5c(cc4OC)N(C)[C@H]4[C@@](O)(C(=O)OC)[C@H](OC(C)=O)[C@]6(CC)C=CCN7CC[C@]54[C@@H]76)CC(C3)[C@H]1O2 (some centres undefined)
dose: 0.38 mg/kg/injection, schedule: Q01DX009 (ip), vehicle: saline
  survivor count: 10 of 10
dose: 3.0 mg/kg/injection, schedule: Q01DX009 (ip), vehicle: Klucel (hydroxypropylcellulose) (HPC)
  T/C: 135 % of control
dose: 3.0 mg/kg/injection, schedule: Q01DX009 (ip), vehicle: saline, evaluated on day 45
  T/C: 130 % of control
dose: 3.0 mg/kg/injection, schedule: Q01DX009 (ip), vehicle: saline, evaluated on day 60
  T/C: 129 % of control
dose: 6.0 mg/kg/injection, schedule: Q01DX009 (ip), vehicle: Klucel (hydroxypropylcellulose) (HPC)
  T/C: 138 % of control
dose: 6.0 mg/kg/injection, schedule: Q04DX003 (ip), vehicle: saline
  T/C: 147 % of control
dose: 12.0 mg/kg/injection, schedule: Q01DX009 (ip), vehicle: saline
  survivor count: 5 of 6
dose: 24.0 mg/kg/injection, schedule: Q01DX009 (ip), vehicle: saline
  survivor count: 8 of 10
dose: 24.0 mg/kg/injection, schedule: Q04DX003 (ip), vehicle: saline
  survivor count: 3 of 6

## CC(C)=CCC/C(C)=C/CNCCc1c[nH]c2ccccc12
dose: 25.0 mg/kg/injection, schedule: Q01DX009 (ip), vehicle: Klucel (hydroxypropylcellulose) (HPC)
  survivor count: 9 of 10
[7]
  survivor count: 9 of 10
[4]
  survivor count: 2 of 10

## C/C(=N\[N+](C)(C)C)c1ccc2ccccc2c1
[4]
  survivor count: 5 of 10

## O=C1C(N2CCN(CCO)CC2)=C(N2CC2)C(=O)C(N2CCN(CCO)CC2)=C1N1CC1
dose: 2.0 mg/kg/injection, schedule: Q01DX009 (ip), vehicle: saline
  survivor count: 10 of 10

## CN(C(=N)N)c1ccc(C(=O)Oc2ccc([N+](=O)[O-])cc2)cc1
[13]
  survivor count: 1 of 10

## CC1(C)N=C(N)N=C(N)N1c1ccc(CCC(=O)Nc2ccc(S(=O)(=O)F)cc2)c(Cl)c1
[10]
  T/C: 126 % of control
dose: 35.6 mg/kg/injection, schedule: Q01DX009 (ip), vehicle: saline with Tween-80
  T/C: 125 % of control
dose: 44.0 mg/kg/injection, schedule: Q01DX009 (ip), vehicle: saline with Tween-80
  survivor count: 6 of 6
[6]
  T/C: 133 % of control
dose: 67.0 mg/kg/injection, schedule: Q01DX009 (ip), vehicle: saline with Tween-80
  survivor count: 6 of 6
[9]
  survivor count: 6 of 6
dose: 150.0 mg/kg/injection, schedule: Q01DX009 (ip), vehicle: saline with Tween-80
  survivor count: 6 of 6

## Nc1nc(Br)c2ccccc2c1-c1ccc([N+](=O)[O-])cc1
[11]
  survivor count: 10 of 10
dose: 600.0 mg/kg/injection, schedule: Q01DX009 (ip), vehicle: saline with Tween-80
  survivor count: 10 of 10

## CC(=O)CC(=O)Nc1ccc(C(=O)O)c(O)c1
[13]
  survivor count: 10 of 10

## CCCC(C(CC)CN(C)C)N(C)C (centres undefined)
[9]
  survivor count: 6 of 10

## CCCC1(CCC)CN(CO)C1=O
dose: 200.0 mg/kg/injection, schedule: Q01DX009 (ip), vehicle: saline
  survivor count: 9 of 10
dose: 400.0 mg/kg/injection, schedule: Q04DX003 (ip), vehicle: saline
  survivor count: 10 of 10
